# The supplement of paper PMC5949888
# Most values lie at the floor of the assay. Slopes are relative: functional sequences can read slightly below zero.
# Test system: Saccharomyces cerevisiae PS128 hsf1 delta, HSF1(1-493) fusion
# Experiment: growth estimate (transactivation domain function in HSF1 fusion, heat-shock survival) (a.u. (slope of normalised read count over time)); higher = stronger growth at 37°C, i.e. more transactivation activity
# Details: library: random library
row,Substance,growth estimate
1,PEELSESVRYTGRTGVGWES,< -0.25
2,GGQVGE,< -0.25
3,FRRV,< -0.25
4,AAACRARRSC,< -0.25
5,PAHHRITQAGSLSDGIGRMI,< -0.25
6,HTKWTQGSWHDRAHAVDQGP,< -0.25
7,TGRHRSRADCPSQASANMTL,< -0.25
8,FLVPWGSSQVGVQSAIAQVG,< -0.25
9,AGAQHPLRHRITP,< -0.25
10,ASTTSV,< -0.25
11,CSRAS,< -0.25
12,LDLIQFDEAVCLGTIEVNML,< -0.25
13,HGLLTSHTCMLFPVITFAWS,-0.0311
14,PGAVDNGGL,< -0.25
15,GKGVMGRDGRTEVVRYVGAQ,< -0.25
16,DFTFASAPVDYWYTRSVTRT,< -0.25
17,AANS,< -0.25
18,NIESFCPTGTKLR,< -0.25
19,TRRTWIAEAKSAHEIYLTVG,< -0.25
20,ETQMVRSECWNYCYRQRISG,< -0.25
21,ALRQTLS,< -0.25
22,LVRLSLAR,< -0.25
23,KPSDRHHLGS,< -0.25

# Single entries from above.
# Under growth estimate, ETQMVRSECWNYCYRQRISG shows < -0.25
# Under growth estimate, PEELSESVRYTGRTGVGWES shows < -0.25
# Under growth estimate, AAACRARRSC shows < -0.25
# Under growth estimate, PGAVDNGGL shows < -0.25
# Under growth estimate, LVRLSLAR shows < -0.25

# (cont.)

row,Substance,growth estimate
1,HEFPQMHASRPATEASSRGL,< -0.25
2,VLPEYVGGCKIPWVSAGRMD,< -0.25
3,YKKP,< -0.25
4,EHGFPIFPGPC,< -0.25
5,RAYICGGCNCRGVWLESDYP,< -0.25
6,DWETFRP,< -0.25
7,SNGVPILYSAF,< -0.25
8,ANSVFRGR,< -0.25
9,LALRIIWAIRFARDSGLHRL,< -0.25
10,AELHKQCPCRVSI,< -0.25
11,ATPGHKERGVRSDETP,< -0.25
12,WRIV,< -0.25
13,SGSSAVERCYI,< -0.25
14,CTTETACPGWDATMYSHLPR,< -0.25
15,SISNLHRQGYNVAPGFTITQ,< -0.25
16,PDLTEEPKCSLRARMVPTAL,< -0.25
17,WGSGHHSVQSVPASGNLPTT,< -0.25
18,GHVCVLCMAIMRK,< -0.25
19,GFTPEMRSRTSSVLNMGIID,-0.25
20,VDAGIMALTGSGAMPS,< -0.25
21,RGTGASYSMLRCEWNGPTQQ,< -0.25
22,SRRPRSLRGTVVSVRGRVRV,< -0.25
23,GGPN,-0.246

# A different layout for some results above.
row | Substance | growth estimate
7 | SNGVPILYSAF | < -0.25
8 | ANSVFRGR | < -0.25
22 | SRRPRSLRGTVVSVRGRVRV | < -0.25

# (listing goes on)

row,Substance,growth estimate
1,LVCHVKRWLHVECPKKFGPA,< -0.25
2,AHSNFPGFQLGRAWINA,< -0.25
3,MGGGERTGAELDMC,< -0.25
4,GIGHSLCHIALATFLRAFFQ,< -0.25
5,RARGGRIPLHVRKPVRLSIA,< -0.25
6,EKSLW,< -0.25
7,PTQRDSAIGLALYRVTSRLD,< -0.25
8,ELATAAKST,< -0.25
9,KSKCARSVCRL,< -0.25
10,PLHDPFMRGISLDGVGEMYA,-0.224
11,TSPFVS,< -0.25
12,QPIGGSRSFKVGLRGLKII,< -0.25
13,GGGSEQNILRRRPEVSVGSA,< -0.25
14,MCVEYSAIGASAQAKNVGRQ,< -0.25
15,MTDHWGRWPSHCTGTTLRAR,< -0.25
16,TITGASYKPGWDSVGYLGHD,< -0.25
17,ERTPET,< -0.25
18,RLWGSCSLGAETGSNGIGSL,-0.246
19,GSQAVTRGLWKEI,< -0.25
20,HCGFIKGSIVTHLGPSLKQR,-0.246
21,LAVM,< -0.25
22,SDFGGR,< -0.25
23,PAGGSLKTPPLSYAREIHLS,< -0.251

row,Substance,growth estimate
1,SLSVPLRS,< -0.25
2,LARGRAIIRQSYSSPLAR,< -0.25
3,NGPTV,< -0.25
4,RKSLG,< -0.25
5,TVLATRNWKVTRSRLQQNRH,< -0.25
6,DDRLR,< -0.25
7,FATLRTVRGGTGVIFQSSVR,< -0.253
8,YRISTVSALGVSK,< -0.25
9,RCYLLGPVIPCKGSYASSVG,< -0.25
10,HVSDNRMAVLCLTQLVFRTT,< -0.25
11,FPQLT,< -0.25
12,VCIG,< -0.25
13,FRWRYRVIESLRTLVPGD,< -0.25
14,VRSAATLGVVQRPV,< -0.25
15,GGLHDWGVRVYTDTYKSLSR,< -0.25
16,NSTHRDETR,< -0.25
17,PVRENA,< -0.25
18,LPDGAERPILAAMVWSLRLD,< -0.25
19,YISGISVLQGLLSSVLMAIS,< -0.25
20,SGLHRSMVDPCIQKRPSPLA,< -0.25
21,QSTLVCRRVRRSTGTEGIST,< -0.25
22,RQVSSWWEDKTPYAKVSGRG,< -0.25
23,LGCGIEVGGIVTA,< -0.25

row,Substance,growth estimate
1,AGDLTGIYHC,< -0.25
2,RYAQEIDKGT,< -0.25
3,GVGV,< -0.25
4,YIFCSM,-0.248
5,VPTGRTAHTIRLTPERRPDE,< -0.25
6,FNGPCGKGGVRYGKSDRCID,< -0.25
7,GEGSDARQPGIKLYARSVPA,< -0.25
8,ARDKTRLSGLSRTT,< -0.25
9,GSRNSIS,< -0.25
10,GTRDPVFKKCRYGRLKSWVG,-0.203
11,HGQ,< -0.25
12,NNILRENPVVVTSMSSLSAS,< -0.25
13,SSTS,< -0.25
14,DRVTHMAE,-0.229
15,LMGRPGELLVHINLDVVPST,< -0.25
16,LFSGFRCYIAV,< -0.25
17,RNRICGISQKICYLIAYNAD,< -0.25
18,PTTTSQENKARHHRYEAPYE,< -0.25
19,APGPSQQALI,< -0.25
20,VDVIQPSDTVTALSGIPIRV,< -0.25
21,RALKKRTGASSP,< -0.25
22,LMKLPRSRR,< -0.25
23,KSDAVSPVRHRLTEARWLSP,< -0.25

row,Substance,growth estimate
1,STNRLCSLLEYTFKVVRSVT,< -0.25
2,SAGSCGIIMT,< -0.25
3,MQNRAGPGGVRHTGLLVNPY,< -0.25
4,SSCT,< -0.25
5,SGSLV,-0.246
6,GFRAKFSTPPPGVVTRVFAD,-0.248
7,SGRKLHAPQAPKSEAGSVAP,< -0.25
8,DGPETELPAAVGACIDPAR,< -0.25
9,RCSSAQAGGGTG,< -0.25
10,RCIGVVIS,< -0.25
11,CFKESQLCRAVSTSRSREGR,< -0.25
12,LPLP,< -0.25
13,KIYNNATGAEQSRDVSALRG,< -0.25
14,EHTKGANSKVGSGETVLKAS,< -0.25
15,HNAESS,< -0.25
16,RASELHRHRGQFLEVRRNRK,< -0.25
17,FSRYGRKLGVLVLSKNTWVA,< -0.25
18,TDRLY,< -0.25
19,RFRNIDSVGSRSHVRSGLFD,< -0.25
20,LTPQR,< -0.25
21,GVQR,< -0.25
22,VCSENGWAVFSQRHLGTSSV,< -0.25
23,RYDMLGAGPRTKSPGSGSTR,< -0.25

row,Substance,growth estimate
1,IRWGALTANERRRHIGV,< -0.25
2,LADL,< -0.25
3,RSLEVQRVTRGGSFPVYPYA,-0.214
4,AKALRPKMIPYERDRKLLSA,< -0.25
5,DSDKYASAPLEFNHVAAGLR,< -0.25
6,YLQAWTITLCDPIYRDLIRD,< -0.25
7,SGGGSTGLRYQGNTQDRSS,< -0.25
8,PVRILCY,< -0.25
9,TRPEDRINPLDEGPLRNIVG,< -0.25
10,GVSSSVEARVVANGQGAPGQ,< -0.25
11,LTDR,< -0.25
12,SGLLPNNCL,< -0.25
13,GRPT,< -0.25
14,YDGLPAQPSKYIYPKRSL,< -0.25
15,FGTKPSHTE,< -0.25
16,RMNLGLSGV,< -0.25
17,VLGAREGLVDHVVQSGNAQV,< -0.25
18,CVVFGQTPVDRMYINAQEVL,< -0.25
19,AEQVQGTPRNKGPGIV,< -0.25
20,GLASKYPD,< -0.25
21,RSGVSDTYVSLV,< -0.25
